Results are given in words; binding and its absence hold for the method and conditions named. For some of these results: In cells and extracts the contact can be indirect. Some binding calls cover weakened binding; strength is not graded here.
Key:
FLAG-AICD (human) [1] = target: FLAG-AICD (human) (UniProt P05067); assay: co-immunoprecipitation from Cos7 cells: IP with anti-NEDL-1 antibody, detection with anti-FLAG antibody (FIG. 7)
FLAG-AICD (human) [2] = target: FLAG-AICD (human) (UniProt P05067); assay: immunoprecipitation with anti-NEDL-1 antibody, detection with anti-FLAG antibody (FIG. 7 legend)
FLAG-AICD (human) [3] = target: FLAG-AICD (human) (UniProt P05067); assay: co-immunoprecipitation from Cos7 cells: IP with anti-FLAG antibody, detection with anti-NEDL-1 antibody (FIG. 8)
FLAG-AICD (human) [4] = target: FLAG-AICD (human) (UniProt P05067); assay: immunoprecipitation with anti-FLAG antibody, detection with anti-NEDL-1 antibody (FIG. 8 legend)

Amino acid sequences for entries named in this document (tags omitted). A change or cut given only in a name is not applied to a line headed by its entry.
UniProt Q76N89: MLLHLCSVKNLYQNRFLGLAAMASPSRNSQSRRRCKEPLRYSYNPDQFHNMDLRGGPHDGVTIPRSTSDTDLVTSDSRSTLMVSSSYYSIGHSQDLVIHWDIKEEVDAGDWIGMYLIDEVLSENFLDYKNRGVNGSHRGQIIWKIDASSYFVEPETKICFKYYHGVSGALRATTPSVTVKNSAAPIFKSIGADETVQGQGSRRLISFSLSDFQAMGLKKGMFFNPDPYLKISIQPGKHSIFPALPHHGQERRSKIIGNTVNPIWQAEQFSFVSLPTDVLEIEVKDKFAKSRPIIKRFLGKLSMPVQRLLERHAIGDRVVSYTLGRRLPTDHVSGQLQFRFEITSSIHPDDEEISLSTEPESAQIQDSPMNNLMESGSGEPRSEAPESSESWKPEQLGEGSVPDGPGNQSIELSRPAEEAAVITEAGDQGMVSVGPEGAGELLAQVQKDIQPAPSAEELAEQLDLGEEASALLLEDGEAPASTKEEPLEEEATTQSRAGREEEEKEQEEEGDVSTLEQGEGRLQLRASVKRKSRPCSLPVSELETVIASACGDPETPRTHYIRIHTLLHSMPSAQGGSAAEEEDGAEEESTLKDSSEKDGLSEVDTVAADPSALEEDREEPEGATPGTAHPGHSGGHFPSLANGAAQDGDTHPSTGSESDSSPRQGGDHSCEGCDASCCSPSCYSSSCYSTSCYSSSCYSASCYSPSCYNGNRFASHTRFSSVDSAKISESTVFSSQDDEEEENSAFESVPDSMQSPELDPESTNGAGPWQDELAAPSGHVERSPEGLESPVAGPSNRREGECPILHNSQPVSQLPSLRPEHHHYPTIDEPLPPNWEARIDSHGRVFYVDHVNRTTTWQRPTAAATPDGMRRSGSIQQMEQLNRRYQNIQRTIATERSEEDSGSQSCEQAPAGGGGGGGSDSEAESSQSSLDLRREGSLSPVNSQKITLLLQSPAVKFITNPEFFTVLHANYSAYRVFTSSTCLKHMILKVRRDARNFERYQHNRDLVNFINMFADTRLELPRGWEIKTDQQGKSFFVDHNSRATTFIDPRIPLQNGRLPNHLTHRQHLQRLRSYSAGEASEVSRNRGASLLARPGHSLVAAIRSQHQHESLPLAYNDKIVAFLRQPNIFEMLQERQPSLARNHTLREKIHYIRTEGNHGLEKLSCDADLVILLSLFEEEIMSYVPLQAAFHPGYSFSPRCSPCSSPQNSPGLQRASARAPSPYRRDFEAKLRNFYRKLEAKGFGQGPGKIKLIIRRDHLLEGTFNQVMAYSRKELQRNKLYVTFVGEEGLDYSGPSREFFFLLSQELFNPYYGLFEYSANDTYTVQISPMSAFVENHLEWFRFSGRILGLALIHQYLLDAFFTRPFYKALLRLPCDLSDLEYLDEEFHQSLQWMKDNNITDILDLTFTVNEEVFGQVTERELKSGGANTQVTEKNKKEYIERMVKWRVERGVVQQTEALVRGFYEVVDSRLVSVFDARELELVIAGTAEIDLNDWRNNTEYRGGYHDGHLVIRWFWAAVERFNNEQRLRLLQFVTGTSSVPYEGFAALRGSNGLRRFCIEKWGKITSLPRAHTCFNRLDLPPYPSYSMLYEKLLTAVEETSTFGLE

Measured: binding

NEDL-1 protein (from UniProt Q76N89 22-1606) (enzyme)
binds: all assays above

From patent publication US20050064411A1
